Experimental data taken from article PMC11435625, “In Vitro Hepatic Clearance Evaluations of Per- and Polyfluoroalkyl Substances (PFAS) across Multiple Structural Categories” (Toxics, 2024).

Experiment: Administered equivalent dose (AED) by reverse dosimetry
Design: species or system human
Conditions: reverse dosimetry from in vitro POD and Css
Experimental: IVIVE was performed as previously described to calculate human steady-state concentrations (Css). Briefly, experimental plasma protein binding data presented elsewhere were transformed to fraction unbound in blood using blood-to-plasma partitioning values. Experimental Clint values generated here are used in conjunction with relevant liver scalars to scale up to estimate whole liver clearance. […] Once Css values were established, these were used with the PFAS-specific in vitro POD data to calculate the administered equivalent doses (AEDs) using reverse dosimetry. […] The fifth-percentile AC50 value was used to define the in vitro POD. All relevant inputs, scalars, and calculations are provided in Supplementary Information, as indicated in the results.

| Compound | AED [mg/kg/day] |
| --- | --- |
| O=C(O)C(F)(F)C(F)(F)C(F)(F)C(F)(F)C(F)(F)C(F)(F)C(F)(F)C(F)(F)C(F)(F)C(F)F | 0.0252 |
| O=C(O)CCC(F)(F)C(F)(F)C(F)(F)C(F)(F)C(F)(F)F | 0.9861 |
| O=S(=O)(O)CCC(F)(F)C(F)(F)C(F)(F)C(F)(F)C(F)(F)C(F)(F)F | 0.8919 |
| O=S(=O)(O)CCC(F)(F)C(F)(F)C(F)(F)C(F)(F)C(F)(F)C(F)(F)C(F)(F)C(F)(F)F | 2.2926 |
| CCNS(=O)(=O)C(F)(F)C(F)(F)C(F)(F)C(F)(F)C(F)(F)C(F)(F)C(F)(F)C(F)(F)F | 4.0220 |
| CNS(=O)(=O)C(F)(F)C(F)(F)C(F)(F)C(F)(F)C(F)(F)C(F)(F)C(F)(F)C(F)(F)F | 3.0589 |
| O=C(Cl)C(F)(F)C(F)(F)C(F)(F)C(F)(F)C(F)(F)C(F)(F)C(F)(F)F | 0.0010 |
| O=S(=O)(Cl)C(F)(F)C(F)(F)C(F)(F)C(F)(F)C(F)(F)C(F)(F)C(F)(F)C(F)(F)F | 0.2584 |
| O=C(O)C(F)(F)OC(F)(F)C(F)(F)OC(F)(F)F | 0.0446 |
| O=C(O)C(F)(F)C(F)(F)C(F)(F)OC(F)(C(F)(F)F)C(F)(F)F | 0.8818 |
| O=C(O)C(F)(F)C(F)(F)C(F)(F)OC(F)(F)F | 2.6816 |
| C[N+](C)(C)CCCNS(=O)(=O)C(F)(F)C(F)(F)C(F)(F)C(F)(F)C(F)(F)C(F)(F)C(F)(F)C(F)(F)F.[I-] | 0.0349 |
| O=S(=O)([O-])C(F)(F)C(F)(F)C(F)(F)C(F)(F)F.[K+] | 0.0343 |
| O=S(=O)([O-])C(F)(F)C(F)(F)C(F)(F)C(F)(F)C(F)(F)C(F)(F)F.[K+] | 0.0194 |
| O=S(=O)([O-])C(F)(F)C(F)(F)C(F)(F)C(F)(F)C(F)(F)C(F)(F)C(F)(F)C(F)(F)F.[K+] | 0.0959 |
| O=S(=O)(OCC(F)(F)F)C(F)(F)C(F)(F)C(F)(F)C(F)(F)F [2,2,2-Trifluoroethyl perfluorobutanesulfonate] | 0.0541 |
| O=P(O)(O)CCC(F)(F)C(F)(F)C(F)(F)C(F)(F)C(F)(F)C(F)(F)F [2-(Perfluorohexyl)ethylphosphonic acid] | 0.0793 |
| O=C(O)CCC(F)(F)C(F)(F)C(F)(F)C(F)(F)C(F)(F)C(F)(F)F [6:3 FTCA, 6:3 Fluorotelomer carboxylic acid] | 0.1829 |
| O=C(O)CCC(F)(F)C(F)(F)C(F)(F)C(F)(F)C(F)(F)C(F)(F)C(F)(F)F [7:3 FTCA, 3-Perfluoroheptylpropanoic acid] | 0.1923 |
| O=C(O)C(F)(F)C(F)(F)C(F)(F)C(F)(F)C(F)(F)C(F)(F)C(F)F [8H-Perfluorooctanoic acid (8H-PFOA)] | 0.0365 |
| O=C(O)C(F)(F)C(F)(F)C(F)(F)C(F)(F)C(F)(F)C(F)(F)C(F)(F)C(F)F [9-H-Perfluorononanoic acid (9H-PFNA)] | 0.0041 |

| Compound | AED [mg/kg/day] |
| --- | --- |
| N.O=C(O)C(F)(F)C(F)(F)C(F)(F)C(F)(F)C(F)(F)C(F)(F)C(F)(F)F [Ammonium perfluorooctanoate (NH4PFOA)] | 0.0724 |
| O=S(=O)(O)C(F)(F)C(F)(F)OC(F)(F)C(F)(F)F [Perfluoro(2-ethoxyethane)sulfonic acid] | 0.4229 |
| O=C(O)C(F)(F)OC(F)(F)C(F)(F)OC(F)(F)C(F)(F)OC(F)(F)F [Perfluoro-3,6,9-trioxadecanoic acid] | 0.0033 |
| O=C(O)C(F)(F)OC(F)(F)C(F)(F)OC(F)(F)C(F)(F)C(F)(F)C(F)(F)F [Perfluoro-3,6-dioxadecanoic acid] | 0.0062 |
| O=S(=O)(O)C(F)(F)C(F)(F)C(F)(F)C(F)(F)F [Perfluorobutanesulfonic acid (PFBS)] | 0.8295 |
| O=C(O)C(F)(F)C(F)(F)C(F)(F)F [Perfluorobutanoic acid (PFBA)] | 0.1034 |
| O=C(O)C(F)(F)C(F)(F)C(F)(F)C(F)(F)C(F)(F)C(F)(F)C(F)(F)C(F)(F)C(F)(F)F [Perfluorodecanoic acid (PFDA)] | 0.0626 |
| O=S(=O)(O)C(F)(F)C(F)(F)C(F)(F)C(F)(F)C(F)(F)C(F)(F)C(F)(F)F [Perfluoroheptanesulfonic acid (PFHpS)] | 0.0202 |
| O=C(O)C(F)(F)C(F)(F)C(F)(F)C(F)(F)C(F)(F)C(F)(F)F [Perfluoroheptanoic acid (PFHpA)] | 0.0100 |
| O=C(Cl)C(F)(F)C(F)(F)C(F)(F)C(F)(F)C(F)(F)C(F)(F)F [Perfluoroheptanoyl chloride (PFHpA-Cl)] | 0.0179 |
| NS(=O)(=O)C(F)(F)C(F)(F)C(F)(F)C(F)(F)C(F)(F)C(F)(F)F [Perfluorohexanesulfonamide (PFHxSA)] | 0.0048 |
| O=S(=O)(O)C(F)(F)C(F)(F)C(F)(F)C(F)(F)C(F)(F)C(F)(F)F [Perfluorohexanesulfonic acid (PFHxS)] | 0.0334 |
| O=C(O)C(F)(F)C(F)(F)C(F)(F)C(F)(F)C(F)(F)F [Perfluorohexanoic acid (PFHxA)] | 0.0801 |
| O=C(O)C(F)(F)C(F)(F)C(F)(F)C(F)(F)C(F)(F)C(F)(F)C(F)(F)C(F)(F)F [Perfluorononanoic acid (PFNA)] | 0.0453 |
| NS(=O)(=O)C(F)(F)C(F)(F)C(F)(F)C(F)(F)C(F)(F)C(F)(F)C(F)(F)C(F)(F)F [Perfluorooctane sulfonamide (PFOSA)] | 2.1470 |
| O=S(=O)(O)C(F)(F)C(F)(F)C(F)(F)C(F)(F)C(F)(F)C(F)(F)C(F)(F)C(F)(F)F [Perfluorooctane sulfonate (PFOS)] | 0.0814 |
| O=C(O)C(F)(F)C(F)(F)C(F)(F)C(F)(F)C(F)(F)C(F)(F)C(F)(F)F [Perfluorooctanoic acid (PFOA)] | 0.0138 |
| O=C(O)C(F)(F)C(F)(F)C(F)(F)C(F)(F)C(F)(F)C(F)(F)C(F)(F)C(F)(F)C(F)(F)C(F)(F)C(F)(F)C(F)(F)C(F)(F)F [Perfluorotetradecanoic acid (PFTeA)] | 0.3694 |
| O=C(O)C(F)(F)C(F)(F)C(F)(F)C(F)(F)C(F)(F)C(F)(F)C(F)(F)C(F)(F)C(F)(F)C(F)(F)C(F)(F)C(F)(F)F [Perfluorotridecanoic acid] | 0.1545 |
| O=C(O)C(F)(F)C(F)(F)C(F)(F)C(F)(F)C(F)(F)C(F)(F)C(F)(F)C(F)(F)C(F)(F)C(F)(F)F [Perfluoroundecanoic acid (PFUnDA)] | 0.0625 |
| O=S(=O)([O-])C(F)(F)C(F)(F)C(F)(F)C(F)(F)C(F)(F)C(F)(F)C(F)(F)C(F)(F)C(F)(F)C(F)(F)F.[Na+] [Sodium perfluorodecanesulfonate (NaPFDS)] | 0.3936 |
